# Experimental data reported in the supplement of paper PMC10032668.
# Chains of the proteins cited; added tags and fusions are not shown.
# CAMP, P49913, UniProt P49913, whole entry: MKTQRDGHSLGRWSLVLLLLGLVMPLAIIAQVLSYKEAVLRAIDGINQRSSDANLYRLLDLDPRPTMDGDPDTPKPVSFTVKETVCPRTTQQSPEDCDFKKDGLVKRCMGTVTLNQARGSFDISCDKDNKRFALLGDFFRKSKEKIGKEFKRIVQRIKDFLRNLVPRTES
# ATXN2, Q99700, UniProt Q99700, whole entry: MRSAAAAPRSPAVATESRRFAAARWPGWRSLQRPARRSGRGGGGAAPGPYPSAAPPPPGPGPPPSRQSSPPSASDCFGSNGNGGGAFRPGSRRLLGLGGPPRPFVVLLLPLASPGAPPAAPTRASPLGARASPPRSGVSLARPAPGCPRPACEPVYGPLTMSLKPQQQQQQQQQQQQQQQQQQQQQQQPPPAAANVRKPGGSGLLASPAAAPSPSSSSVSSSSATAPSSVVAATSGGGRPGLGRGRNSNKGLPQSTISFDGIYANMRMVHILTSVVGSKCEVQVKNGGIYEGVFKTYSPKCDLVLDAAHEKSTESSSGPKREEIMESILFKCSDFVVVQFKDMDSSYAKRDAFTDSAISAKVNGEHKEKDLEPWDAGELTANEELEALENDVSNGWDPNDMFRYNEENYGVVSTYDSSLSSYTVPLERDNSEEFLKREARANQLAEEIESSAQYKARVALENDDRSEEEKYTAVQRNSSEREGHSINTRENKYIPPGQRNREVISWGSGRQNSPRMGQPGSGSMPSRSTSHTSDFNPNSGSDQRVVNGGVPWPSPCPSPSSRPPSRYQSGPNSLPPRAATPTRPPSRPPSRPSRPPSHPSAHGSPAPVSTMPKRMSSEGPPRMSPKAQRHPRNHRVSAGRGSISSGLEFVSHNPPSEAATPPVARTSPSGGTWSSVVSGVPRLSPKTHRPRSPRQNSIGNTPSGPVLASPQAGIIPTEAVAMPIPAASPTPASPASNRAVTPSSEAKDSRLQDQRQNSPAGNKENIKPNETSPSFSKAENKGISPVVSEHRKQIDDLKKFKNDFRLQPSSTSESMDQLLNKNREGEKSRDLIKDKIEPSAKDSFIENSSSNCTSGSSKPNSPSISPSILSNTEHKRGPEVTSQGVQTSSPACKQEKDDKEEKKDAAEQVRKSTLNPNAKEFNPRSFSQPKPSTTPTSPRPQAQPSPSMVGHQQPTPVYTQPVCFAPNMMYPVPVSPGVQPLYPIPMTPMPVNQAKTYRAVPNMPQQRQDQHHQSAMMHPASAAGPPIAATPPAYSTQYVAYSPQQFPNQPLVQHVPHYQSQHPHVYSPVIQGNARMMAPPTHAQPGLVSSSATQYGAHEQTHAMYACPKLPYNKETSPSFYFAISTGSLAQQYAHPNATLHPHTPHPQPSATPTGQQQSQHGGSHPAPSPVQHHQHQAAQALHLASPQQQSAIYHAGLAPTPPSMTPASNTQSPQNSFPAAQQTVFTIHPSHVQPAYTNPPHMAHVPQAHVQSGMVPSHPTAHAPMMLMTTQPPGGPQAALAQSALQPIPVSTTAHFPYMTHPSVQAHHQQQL
# The other results are listed elsewhere or left out. The list holds hits alone, and they repeat only in part.
# Legend:
# Assay in all cases: PRISMA enrichment of interactor (LFQ) in peptide spot vs all other peptide spots (log2 fold change); higher = stronger / more specific binding of the interactor to the peptide
# ALDH9A1, P49189 = target: ALDH9A1, P49189
# Procedure: (§1)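 PRISMA: 15-aa overlapping tiles (offset 8 aa) of 60 microproteins, plus SOS1/GLUT1 control peptides, were spot-synthesized on cellulose membranes in triplicate. Membranes were incubated with benzonase-treated HEK293T lysate, and bound proteins were identified by LC-MS/MS with LFQ. Enrichment is the log2 fold change of each protein in one spot versus all other spots. Only interactors passing the significance cutoff are listed.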
# ANKHD1, Q8IWZ3 = target: ANKHD1, Q8IWZ3
# Procedure: as §1
# ASCC2, Q9H1I8 = target: ASCC2, Q9H1I8
# Procedure: as §1
# ATP6V1A, P38606 = target: ATP6V1A, P38606
# Procedure: as §1
# CCDC77, Q9BR77 = target: CCDC77, Q9BR77
# Procedure: as §1
# CLASRP, Q8N2M8 = target: CLASRP, Q8N2M8
# Procedure: as §1
# DDX42, Q86XP3 = target: DDX42, Q86XP3
# Procedure: as §1
# EIF3G, O75821 = target: EIF3G, O75821
# Procedure: as §1
# NUP54, Q7Z3B4 = target: NUP54, Q7Z3B4
# Procedure: as §1
# PSMD11, O00231 = target: PSMD11, O00231
# Procedure: as §1
# PTPN1, P18031 = target: PTPN1, P18031
# Procedure: as §1
# RPP38, P78345 = target: RPP38, P78345
# Procedure: as §1
# SHMT1, P34896 = target: SHMT1, P34896
# Procedure: as §1
# SNRNP200, O75643 = target: SNRNP200, O75643
# Procedure: as §1
# STAT3, P40763 = target: STAT3, P40763
# Procedure: as §1
# ZNF483, Q8TF39 = target: ZNF483, Q8TF39
# Procedure: as §1
# ZNF845, Q96IR2 = target: ZNF845, Q96IR2
# Procedure: as §1
# ALDOA, P04075 = target: ALDOA, P04075
# Procedure: as §1
# ANP32A, P39687 = target: ANP32A, P39687
# Procedure: as §1
# BAZ1B, Q9UIG0 = target: BAZ1B, Q9UIG0
# Procedure: as §1
# C1QBP, Q07021 = target: C1QBP, Q07021
# Procedure: as §1
# CAMP, P49913 = target: CAMP, P49913
# Procedure: as §1
# COPS5, Q92905 = target: COPS5, Q92905
# Procedure: as §1
# CTNNBL1, Q8WYA6 = target: CTNNBL1, Q8WYA6
# Procedure: as §1
# FBXO45, P0C2W1 = target: FBXO45, P0C2W1
# Procedure: as §1
# MSH2, P43246 = target: MSH2, P43246
# Procedure: as §1
# NAP1L1, P55209 = target: NAP1L1, P55209
# Procedure: as §1
# NCL, P19338 = target: NCL, P19338
# Procedure: as §1
# PEF1, Q9UBV8 = target: PEF1, Q9UBV8
# Procedure: as §1
# POLR1E, Q9GZS1 = target: POLR1E, Q9GZS1
# Procedure: as §1
# PSMA4, P25789 = target: PSMA4, P25789
# Procedure: as §1
# SET, Q01105 = target: SET, Q01105
# Procedure: as §1
# SRSF2, Q01130 = target: SRSF2, Q01130
# Procedure: as §1
# TFB2M, Q9H5Q4 = target: TFB2M, Q9H5Q4
# Procedure: as §1
# TMEM41B, Q5BJD5 = target: TMEM41B, Q5BJD5
# Procedure: as §1
# TRMT112, Q9UI30 = target: TRMT112, Q9UI30
# Procedure: as §1
# TXLNA, P40222 = target: TXLNA, P40222
# Procedure: as §1
# ALYREF, Q86V81 = target: ALYREF, Q86V81
# Procedure: as §1
# ATG3, Q9NT62 = target: ATG3, Q9NT62
# Procedure: as §1
# ATP6V0D1, P61421 = target: ATP6V0D1, P61421
# Procedure: as §1
# ATXN2, Q99700 = target: ATXN2, Q99700
# Procedure: as §1
# FKBP1A, P62942 = target: FKBP1A, P62942
# Procedure: as §1
# MCM2, P49736 = target: MCM2, P49736
# Procedure: as §1
# NDUFB7, P17568 = target: NDUFB7, P17568
# Procedure: as §1
# P4HB, P07237 = target: P4HB, P07237
# Procedure: as §1
# [1] = substrate: PPIF, P30405
# Procedure: as §1
# TARDBP, Q13148 = target: TARDBP, Q13148
# Procedure: as §1
binder,measurement,setting,value
NGRAVDRAIGWRLFL [TUG1],PRISMA enrichment of interactor (log2),"ALDH9A1, P49189",9.74
same,PRISMA enrichment of interactor (log2),"ANKHD1, Q8IWZ3",5.65
same,PRISMA enrichment of interactor (log2),"ASCC2, Q9H1I8",5.02
same,PRISMA enrichment of interactor (log2),"ATP6V1A, P38606",7.91
same,PRISMA enrichment of interactor (log2),"CCDC77, Q9BR77",4.07
same,PRISMA enrichment of interactor (log2),"CLASRP, Q8N2M8",3.99
same,PRISMA enrichment of interactor (log2),"DDX42, Q86XP3",8.14
same,PRISMA enrichment of interactor (log2),"EIF3G, O75821",6.94
same,PRISMA enrichment of interactor (log2),"NUP54, Q7Z3B4",4.39
same,PRISMA enrichment of interactor (log2),"PSMD11, O00231",4.99
same,PRISMA enrichment of interactor (log2),"PTPN1, P18031",4.92
same,PRISMA enrichment of interactor (log2),"RPP38, P78345",4.88
same,PRISMA enrichment of interactor (log2),"SHMT1, P34896",6.28
same,PRISMA enrichment of interactor (log2),"SNRNP200, O75643",4.77
same,PRISMA enrichment of interactor (log2),"STAT3, P40763",4.26
same,PRISMA enrichment of interactor (log2),"ZNF483, Q8TF39",4.45
same,PRISMA enrichment of interactor (log2),"ZNF845, Q96IR2",4.51
RSRIKTEARETRTKN [CTC-471J1.11],PRISMA enrichment of interactor (log2),"ALDOA, P04075",5.51
same,PRISMA enrichment of interactor (log2),"ANP32A, P39687",6.74
same,PRISMA enrichment of interactor (log2),"BAZ1B, Q9UIG0",5.1
same,PRISMA enrichment of interactor (log2),"C1QBP, Q07021",6.71
same,PRISMA enrichment of interactor (log2),"CAMP, P49913",5.32
same,PRISMA enrichment of interactor (log2),"COPS5, Q92905",4.57
same,PRISMA enrichment of interactor (log2),"CTNNBL1, Q8WYA6",4.64
same,PRISMA enrichment of interactor (log2),"FBXO45, P0C2W1",4.36
same,PRISMA enrichment of interactor (log2),"MSH2, P43246",7.23
same,PRISMA enrichment of interactor (log2),"NAP1L1, P55209",5.45
same,PRISMA enrichment of interactor (log2),"NCL, P19338",4.99
same,PRISMA enrichment of interactor (log2),"PEF1, Q9UBV8",4.7
same,PRISMA enrichment of interactor (log2),"POLR1E, Q9GZS1",4
same,PRISMA enrichment of interactor (log2),"PSMA4, P25789",5.09
same,PRISMA enrichment of interactor (log2),"SET, Q01105",6.08
same,PRISMA enrichment of interactor (log2),"SRSF2, Q01130",6.09
same,PRISMA enrichment of interactor (log2),"TFB2M, Q9H5Q4",5.58
same,PRISMA enrichment of interactor (log2),"TMEM41B, Q5BJD5",4.88
same,PRISMA enrichment of interactor (log2),"TRMT112, Q9UI30",6.14
same,PRISMA enrichment of interactor (log2),"TXLNA, P40222",6.16
PSSLWNSEMSTSLSV [RP11-140K17.3_2],PRISMA enrichment of interactor (log2),"ALYREF, Q86V81",5.24
same,PRISMA enrichment of interactor (log2),"ATG3, Q9NT62",5.65
same,PRISMA enrichment of interactor (log2),"ATP6V0D1, P61421",5.71
same,PRISMA enrichment of interactor (log2),"ATXN2, Q99700",5.69
same,PRISMA enrichment of interactor (log2),"FKBP1A, P62942",4.65
same,PRISMA enrichment of interactor (log2),"MCM2, P49736",5.23
same,PRISMA enrichment of interactor (log2),"NDUFB7, P17568",4.71
same,PRISMA enrichment of interactor (log2),"P4HB, P07237",5.29
same,PRISMA enrichment of interactor (log2),[1],5.7
same,PRISMA enrichment of interactor (log2),"TARDBP, Q13148",4.42

# A second format for some results above:
binder	measurement	setting	value
RSRIKTEARETRTKN [CTC-471J1.11]	PRISMA enrichment of interactor (log2)	C1QBP, Q07021	6.71
same	PRISMA enrichment of interactor (log2)	CAMP, P49913	5.32
same	PRISMA enrichment of interactor (log2)	COPS5, Q92905	4.57
